Reference: PubChem BioAssay AID602196 (INSERM, 2012)
This is one part, drawn at random, of about 23,000 deposited reagents. Over the whole deposit, 455 (2%) got an active call. 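Active includes both protection and sensitisation; some change values fall well beyond the stated -50 to +50 range.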 Entries without a mark were called inactive. The numbers tell different reagents against one gene apart. Not all columns of the deposit are shown. The record does not give: the amount of reagent.

Purpose: 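Modifiers of cisplatin sensitivity in A549 cells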
System: human A549 lung cancer cells
Knock-down reagent: siRNA pair against human genes
Duration: 48 h transfection before cisplatin; time from cisplatin to read-out not stated
Challenge: cisplatin at a dose killing half of control-siRNA cells; exact dose and duration not given
Measurement: 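Cisplatin cell death as a shift from the 50% death seen with control siRNA; siRNAs toxic or growth-blocking alone scored 0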
Reading the numbers: two-siRNA summed score (-2 to +2): higher = both siRNAs protect from cisplatin killing; -2 means both sensitise; mean protection from cisplatin (shift in death): higher = protection from cisplatin killing
Rule for the call: 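Each siRNA scores 0 if harmful alone by LDH or WST-1, otherwise +1 if it reduces and -1 if it increases cisplatin killing; a gene is active when both siRNAs agree (sum +2 or -2)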
Calls: active = both siRNAs shift cisplatin killing the same way; inactive = no consistent shift, or siRNA harmful alone

gene symbol | reagent | two-siRNA summed score (-2 to +2) | mean protection from cisplatin (shift in death) (%)
LOC343066 | 1 | 0 | -1.4
AKIRIN2 | 1 | 0 | 9.2
MOGAT2 | 1 | 0 | -1.2
GUCA2A | 1 | 0 | 14.5
LOC284269 | 1 | 0 | 10.8
LOC401113 | 1 | 0 | 1
RPS8 | 1 | 0 | 31
ZNF217 | 1 | 1 | 10.7
WFDC5 | 1 | 0 | -1.6
CMC1 | 1 | 0 | -3.4
LHX4 | 1 | -1 | -9.5
TMEM203 | 1 | 0 | -11.8
N4BP2L1 | 1 | 0 | 22.9
FUT6 | 1 | -1 | 7.9
SHISA7 | 1 | 0 | -0.1
LOC139046 | 1 | 0 | 6.2
LINC02843 | 1 | 0 | 18
UBE2J1 | 1 | 0 | -2
OR2B6 | 1 | -1 | -4.1
OR4D9 | 1 | 0 | -6.7
LINC01010 | 1 | 0 | 2.5
LOC390281 | 1 | 0 | 25.9
RBP4 | 1 | -1 | -2.7
CD27 | 1 | -1 | -7
ACTMAP | 1 | 1 | 22.4
SERPINE1 | 1 | 0 | -8.9
SLF2 | 1 | 1 | 12.8
ACOT11 | 1 | 0 | 14.3
IDS | 1 | 0 | -22
TMCC1 | 1 | 0 | -2.3
TMCC1 | 2 | 0 | 15.6
LOC441800 | 1 | 0 | -1.5
LOC391824 | 1 | 0 | -0.6
RPL36 | 1 | 0 | 5.7
ALMS1P1 | 1 | 0 | 0
ARHGDIG | 1 | -1 | -8.5
IL10 | 1 | 0 | -3.5
CDC34 | 1 | 0 | 10.3
LOC200916 | 1 | 0 | 5.4
SUB1 | 1 | 0 | -4.5
ANAPC16 | 1 | 0 | -5.6
KCNA1 | 1 | 0 | -0.8
C1QL2 | 1 | 0 | -2.2
FIG4 | 1 | 0 | -0.6
B3GLCT | 1 | 0 | 1.8
LOC441443 | 1 | 0 | 4.7
ACKR2 | 1 | 0 | 4.7
RPAP2 | 1 | -1 | -8.4
KDM5A | 1 | -1 | -12.1
TSPAN9 | 1 | 0 | 2.2
RABL6 | 1 | 0 | 9.1
ANK1 | 1 | 1 | 8.7
LOC399786 | 1 | 0 | 0.3
LOC284931 | 1 | 1 | 20.9
TACC2 | 1 | 0 | 4.6
RMDN2 | 1 | 0 | -2.1
LOC389163 | 1 | 0 | 10.1
TTC27 | 1 | 1 | 7.7
LOC387790 | 1 | 0 | 6.3
OR1L8 | 1 | 0 | 1.4
ERAL1 | 1 | 0 | -0.8
LOC442207 | 1 | 0 | 10.7
LOC387706 | 1 | 0 | 17
BABAM2 | 1 | 0 | 8.2
PSEN2 | 1 | 0 | -1.8
HLA-F-AS1 | 1 | 0 | 3.5
UCN | 1 | 0 | -2.9
PPP1R13B | 1 | -1 | -7.7
LOC442418 | 1 | 0 | 6.2
STMN4 | 1 | 0 | 0.7
PCGF2 | 1 | 1 | 9
ZNF302 | 1 | 1 | 12.4
PUS10 | 1 | 0 | -3.5
